According to paper PMC12005277:
No constants are given. Whether binding was seen depends on the method and setting. Binding seen in cells or lysates may run through a third protein. Some binding calls cover weakened binding; strength is not graded here.

Protein sequences, listed by entry. Tags and fused reporters are not part of them.
UniProt Q9BV68: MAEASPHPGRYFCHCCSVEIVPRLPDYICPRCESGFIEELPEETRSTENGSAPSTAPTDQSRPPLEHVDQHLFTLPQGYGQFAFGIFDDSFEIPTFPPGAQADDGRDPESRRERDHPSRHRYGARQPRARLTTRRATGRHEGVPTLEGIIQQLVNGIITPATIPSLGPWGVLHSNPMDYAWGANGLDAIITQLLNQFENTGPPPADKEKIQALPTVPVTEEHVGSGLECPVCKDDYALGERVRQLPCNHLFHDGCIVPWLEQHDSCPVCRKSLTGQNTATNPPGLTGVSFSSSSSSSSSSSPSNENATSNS
UniProt P46379: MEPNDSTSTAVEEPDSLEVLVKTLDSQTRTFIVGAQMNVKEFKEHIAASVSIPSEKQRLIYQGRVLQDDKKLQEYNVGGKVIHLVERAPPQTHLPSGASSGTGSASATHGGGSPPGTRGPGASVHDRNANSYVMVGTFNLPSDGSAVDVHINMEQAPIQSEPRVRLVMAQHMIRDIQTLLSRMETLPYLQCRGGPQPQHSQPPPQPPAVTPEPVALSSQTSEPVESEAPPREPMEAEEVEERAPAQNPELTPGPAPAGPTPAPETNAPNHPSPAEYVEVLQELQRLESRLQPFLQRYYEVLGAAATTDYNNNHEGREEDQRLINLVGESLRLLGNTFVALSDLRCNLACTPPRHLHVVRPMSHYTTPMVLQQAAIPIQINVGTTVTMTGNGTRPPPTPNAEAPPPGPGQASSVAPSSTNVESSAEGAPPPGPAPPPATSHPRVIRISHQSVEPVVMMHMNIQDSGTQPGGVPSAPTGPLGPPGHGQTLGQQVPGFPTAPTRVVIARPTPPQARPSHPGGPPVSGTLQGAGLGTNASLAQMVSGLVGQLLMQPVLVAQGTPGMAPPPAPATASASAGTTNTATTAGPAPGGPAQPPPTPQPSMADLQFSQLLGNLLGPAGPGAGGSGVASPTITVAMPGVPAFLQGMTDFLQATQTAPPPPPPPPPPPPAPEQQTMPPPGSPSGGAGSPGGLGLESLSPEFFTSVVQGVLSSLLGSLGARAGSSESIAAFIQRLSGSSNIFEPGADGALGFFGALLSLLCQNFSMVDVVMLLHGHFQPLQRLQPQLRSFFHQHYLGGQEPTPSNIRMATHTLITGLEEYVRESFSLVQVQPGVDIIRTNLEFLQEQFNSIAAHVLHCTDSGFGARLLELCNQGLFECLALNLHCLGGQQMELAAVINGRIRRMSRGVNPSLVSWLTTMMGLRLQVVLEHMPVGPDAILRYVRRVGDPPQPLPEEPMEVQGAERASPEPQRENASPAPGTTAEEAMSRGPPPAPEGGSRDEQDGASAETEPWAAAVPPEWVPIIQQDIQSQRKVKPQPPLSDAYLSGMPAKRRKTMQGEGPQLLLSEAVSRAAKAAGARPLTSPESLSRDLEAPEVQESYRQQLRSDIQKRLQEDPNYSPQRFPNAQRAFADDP
UniProt Q9UMX0: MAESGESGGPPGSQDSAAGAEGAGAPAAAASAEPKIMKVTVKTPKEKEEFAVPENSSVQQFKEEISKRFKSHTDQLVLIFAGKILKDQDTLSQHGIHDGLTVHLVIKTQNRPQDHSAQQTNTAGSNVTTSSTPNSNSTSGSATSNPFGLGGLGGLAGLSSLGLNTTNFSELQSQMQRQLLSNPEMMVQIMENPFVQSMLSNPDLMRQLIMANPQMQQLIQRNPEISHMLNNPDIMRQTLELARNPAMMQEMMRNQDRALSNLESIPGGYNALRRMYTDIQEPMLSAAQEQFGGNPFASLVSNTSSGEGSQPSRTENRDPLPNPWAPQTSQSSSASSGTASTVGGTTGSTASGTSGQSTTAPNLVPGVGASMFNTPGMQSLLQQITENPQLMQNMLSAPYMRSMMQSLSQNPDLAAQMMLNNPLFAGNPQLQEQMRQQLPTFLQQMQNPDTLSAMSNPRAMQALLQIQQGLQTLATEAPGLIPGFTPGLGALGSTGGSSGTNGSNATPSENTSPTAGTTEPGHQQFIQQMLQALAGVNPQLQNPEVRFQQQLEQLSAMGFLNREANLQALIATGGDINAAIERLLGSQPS

Target: Myc-RNF126 (wild type) (human) (UniProt Q9BV68)
Experiment: co-IP; anti-Myc agarose for Myc-UBQLN1 or Myc-RNF126; HEK293T cells (wild type or BAG6 knockout) treated with 20 μM MG132 for 2 h; 50 mM Tris-HCl, 150 mM NaCl, 2 mM MgCl2, 0.05% digitonin, 4 °C, 2 h

BAG6 (from UniProt P46379 1-1132)
binding: binds

ubiquilin 1 (UBQLN1) in HEK293T lysate (from UniProt Q9UMX0 1-589)
binding: binds
